What follows is the remainder of the data, with few or none of the hits. Results filed as inconclusive are left out. The source made the active and inactive calls. Calls follow the shape of the dose curve; as a rule, active = well fitted inhibition curve with a large enough effect; inconclusive = small, poorly fitted or top-dose-only effect; inactive = flat fitted curve, though single readings scatter.

The experiment is described as follows: qHTS for Inhibitors of TGF-b: Cytotox Counterscreen for Cherry Picks. Also: nearly all actives have a fitted effect of over 70% in size. The following applies: HepG2 CAGA-GFP viability, ATP luminescence, 18 h, cells stimulated with TGF-beta, 500 pg/mL; at 46.1 µM (top of the series). The text has this: TGF-b is a main component in the TGF-b signaling pathway which plays diverse roles in cellular and development pathways. TGF-b is mediated by transcription factors called "Smads". Although the Smad-dependent pathway is the primary canonical TGF-b signaling mode, TGF-b1 can also activate alternative signaling pathways, including those involving MAPK (ERK, JNK and p38). This interaction may mediate or enhance Smad-dependent responses, or can exert Smad-independent effects. The complexity of this signaling cascade allows the TGF-b superfamily to perform unique, overlapping or redundant functions. […] We aim to identify Smad3-small molecule antagonists using a quantitative high throughput screening (qHTS) approach. […]
Suspensions of trypsinized HEPG2 CAGA-GFP cells were dispensed into white, tissue culture-treated, solid 1536-well plates at 5uL/well (1000 cells/well final concentration) in DMEM medium supplemented with 1% FBS. […] Two uL of CellTiter Glo (Promega), a luminescence-based viability reagent, was dispensed, followed by a 10 minute room temperature incubation. The plates were then measured on a PerkinElmer ViewLux plate reader for luminescence (clear filter) using a 5 second exposure. The %Activity was determined from the corrected luminescence values. […] Concentration-response curves were fitted to the signals arising from the resulting luminescence. […]
For the compound `COc1c(O)cc2c(c1OC)-c1ccc(SC)c(=O)cc1C(NC(C)=O)CC2` (stereo unspecified), the activity, negative = cytotoxicity was inactive: -4.76%.

The values above are taken from PubChem BioAssay AID720535 (National Center for Advancing Translational Sciences (NCATS), 2013).
